This series deals with CENP-T/CENP-Wmut complex CENP-W R19A,K23A,R24A,R34A,R87A (Homo sapiens). Nature of the series: EMSA. The following applies: reduced versus wild-type complex; residual binding attributed to CENP-T; purified recombinant protein; protein details: 6xHis-CENP-T, untagged CENP-W; label: biotin. (In general: Mobility shift assays separate free from complexed probe on a gel.)

Chains of the proteins cited; added tags and fusions are not shown. A line that says so, or that is headed by a name, gives the form on record, which may keep a tag or linker.
CENP-T/CENP-Wmut complex CENP-W R19A,K23A,R24A,R34A,R87A (Homo sapiens), one chain, as listed by the source R19A K23A R24A R34A R87A, chain 2 of 2: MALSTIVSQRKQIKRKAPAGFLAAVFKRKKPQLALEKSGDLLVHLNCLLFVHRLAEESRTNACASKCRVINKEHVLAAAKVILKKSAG

The comparison behind a weaker result is the experiment's own reference, which may not be listed here.

Consider “CCTTTGAGGCCTTCGTTGGA (double strand) [alpha-satellite 20 bp probe (bp 21-40)]”, for which the binding result was “binds more weakly”.
